Data published in PMC10794144, “A novel antibiotic class targeting the lipopolysaccharide transporter” (Nature, 2024).

Test system: A. baumannii
Settings: A. baumannii ATCC19606, MHB, maximum over all reactors and samples

CN1C(=O)[C@H](CCCCN)NC(=O)[C@H](CCCN)NCc2cccnc2Sc2cccc(-c3ccc(C(=O)O)cc3)c2CNC(=O)[C@@H]1Cc1c[nH]c2ccccc12 [zosurabalpin]
MAX≥10% abundance of sequence variant lptF:Arg322Cys: 98%
MAX≥10% abundance of sequence variant lptF:Arg322Ser: 61%
MAX≥10% abundance of sequence variant lptF:Glu58Gly: 62%
MAX≥10% abundance of sequence variant lptF:Lys320Glu: 83%
MAX≥10% abundance of sequence variants csu: (all events): 94%
